Test results as given in patent publication US12036243B2, “BCMA CAR-T cells with enhanced activities” (Allogene Therapeutics, Inc., priority 2020, dated 2024).
At least one structure is not confirmed: it was looked up by name or label, or the drawing left a doubt.

Tested on: BCMA CAR T cells with or without the CACCR

## Cc1nc(Nc2ncc(C(=O)Nc3c(C)cccc3Cl)s2)cc(N2CCN(CCO)CC2)n1 [dasatinib]
150 nM dasatinib, both types of BCMA CAR T cells
  cytokine secretion by BCMA CAR T cells: inhibited cytokine secretion
Dasatinib washed out of the cultures (data not shown)
  reversibility of effects: reversable when dasatinib was washed out
